Patent US20050112064A1 (priority 2003, published 2005)
End groups of sequences in plain letters are not given here.

Assay: peptide made by a vendor (Fmoc solid-phase peptide synthesis)
Details: whole synthesis, HPLC

TERRRQQLDKDGDGTIDEREIKIWFQNKRAKIK
final purity (method not given): >95%
